Measurements reported in PubChem BioAssay AID1053208 (Peter MacCallum Cancer Centre, 2014).
The deposit covers about 17,000 reagents; this is a random part of them. In the full data, 788 (4.7%) are marked active. 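Calls rest on z-score classes alone; an extra cut-off of viability at most 70% of control was not applied to them.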 Unmarked entries are inactive. Some reagents were tested in more than one well and are listed for each.

- Test: 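Synthetic lethal interactions between gene loss and doxorubicin in osteosarcoma cells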 (primary screen)
- Cell system: mouse osteosarcoma cells, early-passage culture from an engineered mouse model of fibroblastic bone tumour
- Reagent: siRNA pool against mouse genes, 40 nM
- Timing: about 120 h (48 h before drug, then 72 h with drug)
- Conditions: doxorubicin 100 nM for 72 h, roughly 30-40% inhibitory dose
- Measurement: 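Luminescent ATP signal taken as viability with or without 100 nM doxorubicin for 72 h; mean of two wells set against non-targeting siRNA and turned into robust z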
- Reading the numbers: viability z-score with doxorubicin and doxorubicin viability vs non-targeting: higher = more viable cells under doxorubicin; viability z-score without drug: higher = more viable cells with knock-down alone; z-score of drug to no-drug ratio: higher = less drug sensitisation by knock-down
- Active means: 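Called active if knock-down leaves viability unchanged without drug (z within -2 to 2) but lowers it with doxorubicin (z at or under -2)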

Target gene	combined z-score class	viability z-score with doxorubicin	viability z-score without drug	z-score of drug to no-drug ratio	doxorubicin viability vs non-targeting
Katnal1	no change with or without drug	0.45	-0.51	1.01	0.98
Gdap10	no change with or without drug	0.79	1.69	-0.22	1.01
Plrg1	no change with or without drug	-0.45	-0.84	0.22	0.9
Or5a1	no change with or without drug	-0.11	0.51	-0.34	0.93
E030011O05Rik	no change with or without drug	0.45	1.52	-0.45	0.98
Vxn	no change with or without drug	0.9	0.51	0.67	1.02
6030498E09Rik	no change with or without drug	0.45	0.34	0.34	0.98
Mab21l3	no change with or without drug	0.11	1.52	-0.79	0.95
Fhl5	no change with or without drug	0.11	1.18	-0.56	0.95
Neurl3	no change with or without drug	-1.8	-0.17	-1.69	0.78
Pomgnt2	no change with or without drug	-0.79	-0.51	-0.34	0.87
Sytl2	no change with or without drug	0.67	0.51	0.45	1
Malt1	no change with or without drug	0.67	0.51	0.45	1
Olr1	no change with or without drug	1.01	1.69	0	1.03
Gspt1	low cell count with and without drug	-3.82	-5.23	-0.45	0.6
Azgp1	no change with or without drug	-1.35	0.51	-1.57	0.82
Blvrb	no change with or without drug	0.67	0.51	0.45	1
Prlhr	no change with or without drug	1.12	-0.34	1.57	1.04
Ercc3	no change with or without drug	-0.56	1.69	-1.46	0.89
Abi3	no change with or without drug	-0.22	-0.84	0.45	0.92
Fam222b	no change with or without drug	0.45	0.17	0.45	0.98
Trpc1	no change with or without drug	-0.11	-0.17	0.11	0.93
Dkk4	no change with or without drug	0.11	1.52	-0.79	0.95
Myf6	no change with or without drug	1.8	-0.51	2.47	1.1
Gzmm	no change with or without drug	-0.67	-0.17	-0.45	0.88
Glis2	no change with or without drug	0.34	0	0.45	0.97
Chmp2b	no change with or without drug	0.22	-0.51	0.67	0.96
Fbxo34	no change with or without drug	-0.22	-0.51	0.22	0.92
Tagln	no change with or without drug	-1.91	-0.84	-1.35	0.77
Mx2	no change with or without drug	0	-0.51	0.45	0.94
Ndufaf7	no change with or without drug	0.9	1.35	0.11	1.02
Tmem184a	high cell count with and without drug	3.26	2.19	1.8	1.23
Gpx5	no change with or without drug	0.11	0.17	0.11	0.95
Rassf2	high cell count without drug only	0.45	2.87	-1.24	0.98
Nodal	no change with or without drug	-0.45	-1.85	1.01	0.9
Gabbr1	no change with or without drug	-0.67	-0.17	-0.45	0.88
Man1c1	no change with or without drug	0.11	0.51	-0.11	0.95
Glycam1	no change with or without drug	0.67	0.51	0.45	1
Strn	no change with or without drug	0.45	0.17	0.45	0.98
Dgka	no change with or without drug	0	0.17	0	0.94
Gnb5	no change with or without drug	0.22	-0.34	0.56	0.96
Serpinb9	no change with or without drug	-0.22	0.51	-0.45	0.92
Appl1	no change with or without drug	-0.79	0.34	-0.9	0.87
Appl1	no change with or without drug	0.56	0.67	0.22	0.99
Pwp1	no change with or without drug	-1.91	0.34	-2.14	0.77
Ttpa	high cell count without drug only	0	2.19	-1.24	0.94
Tagln3	no change with or without drug	0.79	0.34	0.67	1.01
Dus3l	high cell count without drug only	1.91	2.53	0.34	1.11
Irf8	no change with or without drug	-0.22	-1.18	0.79	0.92
Or4c126	no change with or without drug	-0.34	-0.34	0	0.91
Dclre1b	high cell count with doxorubicin only	2.81	1.52	1.8	1.19
Map4k1	no change with or without drug	-0.67	-0.84	0	0.88
Nxph2	no change with or without drug	-0.9	-0.34	-0.67	0.86
Them5	no change with or without drug	1.12	-1.18	2.25	1.04
Rln1	high cell count without drug only	1.57	2.7	-0.11	1.08
Galnt5	no change with or without drug	-0.45	-0.17	-0.22	0.9
Or5k1	no change with or without drug	-0.79	0.51	-1.01	0.87
Eif4g3	high cell count without drug only	-0.45	2.02	-1.57	0.9
Xlr	no change with or without drug	-1.69	-1.52	-0.67	0.79
TNRC6	no change with or without drug	-1.69	1.18	-2.36	0.79
Cish	no change with or without drug	-0.45	-0.17	-0.22	0.9
Herpud2	no change with or without drug	0.34	-0.17	0.56	0.97
Tceal8	no change with or without drug	0.67	0.34	0.56	1
